The source of these data is patent US5756301A, “Endogenous taxol-like substance in human serum, monoclonal antibodies directed thereto and methods of assaying therefor” (The Trustees of Columbia University in the City of New York, priority 1993, dated 1998).

Several values for one entry are separate records, joined by “and”; a condition that tells them apart may be missing. Equal values may be shown once.

One series has as its system 69E4A8E. The series can be described thus: Measurement of taxol levels in human serum by ELISA using 69E4A8E. Also noted: species or system mouse. Particulars: for Taxol concentration found: human serum, three duplicate experiments.
The test system of series [1] is rabbit antitaxol antiserum. Put plainly: Measurement of taxol levels in human serum by RIA using rabbit antitaxol antiserum. Particulars: duplicate.
A further series has as its system rabbit antiserum. The note with it: plant extracts, ELISA, Jaziri et al.; cited from earlier work.

As for `CC(=O)O[C@H]1C(=O)[C@@]2(C)[C@H]([C@H](OC(=O)c3ccccc3)[C@]3(O)C[C@H](OC(=O)[C@H](O)[C@@H](NC(=O)c4ccccc4)c4ccccc4)C(C)=C1C3(C)C)[C@]1(OC(C)=O)CO[C@@H]1C[C@@H]2O` [Taxol], the “Lower limit of measurements” value with 69E4A8E (human serum diluted 1:5, 69E4A8E) is “about 50 nM and ~42 ng/ml”. The Taxol concentration found in the series on 69E4A8E (actual taxol 5 uM) was 3.61 ± 0.35 µM; with 69E4A8E (actual taxol printed 100 nM), 0.6 ± 0.144 µM; in series [1] (actual taxol 5 nM), 5.67 ± 0.64 nM; in series [1] (actual taxol 10 nM), 11.3 ± 0.5 nM; in series [1] (actual taxol 50 nM), 32.7 ± 0.3 nM; in series [1] (actual taxol 500 nM), 476 ± 4 nM. For the same molecule, the Taxol concentration found in series [1] (actual taxol 5 uM) worked out at 5870 ± 1000 nM. Moreover, in the series with rabbit antiserum, the Lowest amount detected is 23.5 nM and 20 ng/ml.
